The source of these data is ChEMBL document CHEMBL1153083, “Antiprotozoal, anticancer and antimicrobial activities of dihydroartemisinin acetal dimers and monomers” (Bioorg Med Chem, 2009).

The structures appear in SMILES notation.

This assay has as its system SK-OV-3. In words: Cytotoxicity against human SKOV3 cells after 48 hrs by neutral red assay. It is filed as functional, cell-based. To be noted: SK-OV-3, 48 h. In short, it runs like this:
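Cells seeded at 25,000 per well and incubated 24 h, then exposed to samples for 48 h. Viable cells were counted by neutral red, with DMSO as vehicle control. IC50 or TC50 values were derived from logarithmic plots of growth inhibition versus concentration.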

For orientation: IC50 means the point on the concentration scale where inhibition reaches its midpoint. Lower therefore signals inhibition by little substance.

As to `CC(=O)O[C@H]1C(=O)[C@@]2(C)[C@H]([C@H](OC(=O)c3ccccc3)[C@]3(O)C[C@H](OC(=O)[C@H](O)[C@@H](NC(=O)c4ccccc4)c4ccccc4)C(C)=C1C3(C)C)[C@]1(OC(C)=O)CO[C@@H]1C[C@@H]2O` [PACLITAXEL], the 50% inhibitory concentration (IC50) was determined as 530 nM.
